PubChem BioAssay AID1159578 – Peter MacCallum Cancer Centre | 2015

- Screen: 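Knock-downs that alter how fast lymphatic endothelial cells migrate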 (primary screen)
- Cells: human lymphatic endothelial cells
- Reagents: siRNA pool against human genes, 40 nM
- Time to read-out: 48 h after transfection
- Detection: 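High-content imaging of dye-stained cells in a scratch assay measures filled wound area and nuclei per well; duplicate means given as ratio to mock and robust z-score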
- Reading the numbers: migration robust z-score: higher = faster migration into the scratch; nuclei per well: higher = more cells in the well
- Hit rule: 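Migration changed when robust z exceeds 2 or falls below -2 and mean nuclei number is at least 3300; otherwise not called changed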
- Meaning of the calls: active = migration changed; inactive = no migration change, or too few cells
The whole screen tested about 18,000 reagents; shown is a part drawn at random. About 1,030 of them (5.7%) were called active. 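Inactive calls also include pools with fewer than 3300 nuclei, whose migration was not assessed.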 Raw values vary from plate to plate and are shown uncorrected. Not all columns of the deposit are shown. No sequences are given here.

FAM135A (family with sequence similarity 135 member A) [SID255359485] showed migration robust z-score -2; migration class with cell-count check migration z between -2 and 2; enough cells; nuclei per well, duplicate mean 5960; inactive.
Knock-down of KLHDC7B (kelch domain containing 7B) [SID255362201] gave: migration robust z-score -0.76; migration class with cell-count check migration z between -2 and 2; enough cells; nuclei per well, duplicate mean 5627; inactive.
Against MED12L (mediator complex subunit 12L) [SID255362396], the entry reads migration robust z-score -0.11; migration class with cell-count check migration z between -2 and 2; enough cells; nuclei per well, duplicate mean 5746; inactive.
With knock-down of PMM2 (phosphomannomutase 2) [SID255351654] the results were migration robust z-score -0.31; migration class with cell-count check migration z between -2 and 2; enough cells; nuclei per well, duplicate mean 5124; inactive.
Against REPS1 (RALBP1 associated Eps domain containing 1) [SID255361643], the entry reads migration robust z-score -1.7; migration class with cell-count check migration z between -2 and 2; enough cells; nuclei per well, duplicate mean 5708; inactive.
ACTMAP (actin maturation protease) [SID255364763] gave migration robust z-score -0.64; migration class with cell-count check migration z between -2 and 2; enough cells; nuclei per well, duplicate mean 3878; inactive.
Depletion of DNMT1 (DNA methyltransferase 1) [SID255349343] gave: migration robust z-score -0.68; migration class with cell-count check migration z between -2 and 2; enough cells; nuclei per well, duplicate mean 4630; inactive.
Depletion of CYP7A1 (cytochrome P450 family 7 subfamily A member 1) [SID255349213] came out at: migration robust z-score 0.52; migration class with cell-count check migration z between -2 and 2; enough cells; nuclei per well, duplicate mean 6230; inactive.
Against PMS2P3 [SID255351659], the values are migration robust z-score 0.25; migration class with cell-count check migration z between -2 and 2; enough cells; nuclei per well, duplicate mean 6010; inactive.
MOBP (myelin associated oligodendrocyte basic protein) [SID255351011] showed migration robust z-score -0.66; migration class with cell-count check migration z between -2 and 2; enough cells; nuclei per well, duplicate mean 4561; inactive.
For KRTAP15-1 (keratin associated protein 15-1) [SID255364473], the entry reads migration robust z-score 0.56; migration class with cell-count check migration z between -2 and 2; enough cells; nuclei per well, duplicate mean 5106; inactive.
For LDHD (lactate dehydrogenase D) [SID255363987], the entry reads migration robust z-score 0.06; migration class with cell-count check migration z between -2 and 2; enough cells; nuclei per well, duplicate mean 5561; inactive.
With knock-down of GDAP2 (ganglioside induced differentiation associated protein 2) [SID255358199], the screen gave migration robust z-score 0.6; migration class with cell-count check migration z between -2 and 2; enough cells; nuclei per well, duplicate mean 5520; inactive.
After knock-down of SEMA6A (semaphorin 6A) [SID255359466], the record shows migration robust z-score -1.4; migration class with cell-count check migration z between -2 and 2; enough cells; nuclei per well, duplicate mean 4040; inactive.
Knock-down of SF3A3 (splicing factor 3a subunit 3) [SID255355468] gave: migration robust z-score -1.25; migration class with cell-count check migration z between -2 and 2; enough cells; nuclei per well, duplicate mean 5292; inactive.
After knock-down of MAN1A2 (mannosidase alpha class 1A member 2) [SID255355433], the record shows migration robust z-score -0.47; migration class with cell-count check migration z between -2 and 2; enough cells; nuclei per well, duplicate mean 5574; inactive.
Silencing of ASPA (aspartoacylase) [SID255348427] came out at: migration robust z-score -0.2; migration class with cell-count check migration z between -2 and 2; enough cells; nuclei per well, duplicate mean 6914; inactive.
Knock-down of C11orf16 (chromosome 11 open reading frame 16) [SID255359113] came out at: migration robust z-score -0.08; migration class with cell-count check migration z between -2 and 2; enough cells; nuclei per well, duplicate mean 5159; inactive.
After knock-down of SACK1C (scaffolding CK1 anchoring protein C) [SID255362822], the record shows migration robust z-score -0.28; migration class with cell-count check migration z between -2 and 2; enough cells; nuclei per well, duplicate mean 6806; inactive.
IL12RB2 (interleukin 12 receptor subunit beta 2) [SID255350476] showed migration robust z-score -0.62; migration class with cell-count check migration z between -2 and 2; enough cells; nuclei per well, duplicate mean 6208; inactive.
FSD2 (fibronectin type III and SPRY domain containing 2) [SID255362587] gave migration robust z-score -0.56; migration class with cell-count check migration z between -2 and 2; enough cells; nuclei per well, duplicate mean 4352; inactive.
